Experimental data taken from patent US4033721A, “Analysis of gentian violet residue in tissue” (priority 1976, dated 1977).
The name of at least one read-out is uncertain.

Assay: Spectrophotometric determination of gentian violet residue in livers of chickens fed gentian violet (Examples 2 to 24)
Assay type: in vivo, chicken
Details: withdrawal time of 3 to 5 days
Protocol: This example involves the spectrophotometrical determination of the gentian violet content (as a residue) of poultry tissue.
An acid alcohol solution was prepared by adding 20 ml of concentrated hydrochloric acid to 2,000 ml of 95 percent ethyl alcohol (denatured).
A gentian violet stock solution was prepared as follows: Using the Ainsworth chainomatic analytical balance, 0.104 gm of crystalline gentian violet (USP) was accurately weighed out and quantitatively transferred to a 1000 ml volumetric flask and q.s. to 1000 ml with distilled water. A magnetic stirring bar was inserted into the flask and the gentian violet solution was mixed on a magnetic mixer for 1 hour. This solution contained 100 ug of gentian violet per ml (100 ppm).
Gentian violet-acid alcohol standard solutions were prepared as follows: Five standard dilutions of gentian violet in acid alcohol were prepared and the absorbence (O.D.) for each dilution was determined. […]
The spectrophotometer was set at 590 mμ and zeroed using an acid alcohol blank. The absorbence of the 5 standard dilutions in the 13 mm cuvette was determined. The O.D. of the 1 ppm dilution in the 13 mm cuvette was recorded for use in calculation of the gentian violet recovery. (If method sensitivity below 0.1 ppm is desired, the O.D. of the 1 ppm standard in the 100 mm cell is recorded and the Beckman D.U. is used to make the determinations.) […]

## CN(C)c1ccc(C(=C2C=CC(=[N+](C)C)C=C2)c2ccc(N(C)C)cc2)cc1 [gentian violet, hexamethylpararosaniline chloride]
  expected residue in the target tissue (liver): ≤ 0.04 ppm
